Results are given in words; binding and its absence hold for the method and conditions named. In cells and extracts the contact can be indirect. Some entries that bind do so weakly or less than the wild type.
Legend:
[1] = target: PER1, wildtype (UniProt O35973); experiment: co-IP; PER1 or PER2 immunoprecipitated from 75 ug of lysate of transfected HEK293 cells with antibody on Protein G Dynabeads, 30 min at room temperature, washed thrice with PBS-T (0.1% tween-20); immunoblot for CK1ε
[2] = target: mouse PER2 (mPER2), wildtype (mouse) (UniProt O54943); experiment: as above

Amino acid sequences for entries named in this document (tags omitted).
UniProt O35973: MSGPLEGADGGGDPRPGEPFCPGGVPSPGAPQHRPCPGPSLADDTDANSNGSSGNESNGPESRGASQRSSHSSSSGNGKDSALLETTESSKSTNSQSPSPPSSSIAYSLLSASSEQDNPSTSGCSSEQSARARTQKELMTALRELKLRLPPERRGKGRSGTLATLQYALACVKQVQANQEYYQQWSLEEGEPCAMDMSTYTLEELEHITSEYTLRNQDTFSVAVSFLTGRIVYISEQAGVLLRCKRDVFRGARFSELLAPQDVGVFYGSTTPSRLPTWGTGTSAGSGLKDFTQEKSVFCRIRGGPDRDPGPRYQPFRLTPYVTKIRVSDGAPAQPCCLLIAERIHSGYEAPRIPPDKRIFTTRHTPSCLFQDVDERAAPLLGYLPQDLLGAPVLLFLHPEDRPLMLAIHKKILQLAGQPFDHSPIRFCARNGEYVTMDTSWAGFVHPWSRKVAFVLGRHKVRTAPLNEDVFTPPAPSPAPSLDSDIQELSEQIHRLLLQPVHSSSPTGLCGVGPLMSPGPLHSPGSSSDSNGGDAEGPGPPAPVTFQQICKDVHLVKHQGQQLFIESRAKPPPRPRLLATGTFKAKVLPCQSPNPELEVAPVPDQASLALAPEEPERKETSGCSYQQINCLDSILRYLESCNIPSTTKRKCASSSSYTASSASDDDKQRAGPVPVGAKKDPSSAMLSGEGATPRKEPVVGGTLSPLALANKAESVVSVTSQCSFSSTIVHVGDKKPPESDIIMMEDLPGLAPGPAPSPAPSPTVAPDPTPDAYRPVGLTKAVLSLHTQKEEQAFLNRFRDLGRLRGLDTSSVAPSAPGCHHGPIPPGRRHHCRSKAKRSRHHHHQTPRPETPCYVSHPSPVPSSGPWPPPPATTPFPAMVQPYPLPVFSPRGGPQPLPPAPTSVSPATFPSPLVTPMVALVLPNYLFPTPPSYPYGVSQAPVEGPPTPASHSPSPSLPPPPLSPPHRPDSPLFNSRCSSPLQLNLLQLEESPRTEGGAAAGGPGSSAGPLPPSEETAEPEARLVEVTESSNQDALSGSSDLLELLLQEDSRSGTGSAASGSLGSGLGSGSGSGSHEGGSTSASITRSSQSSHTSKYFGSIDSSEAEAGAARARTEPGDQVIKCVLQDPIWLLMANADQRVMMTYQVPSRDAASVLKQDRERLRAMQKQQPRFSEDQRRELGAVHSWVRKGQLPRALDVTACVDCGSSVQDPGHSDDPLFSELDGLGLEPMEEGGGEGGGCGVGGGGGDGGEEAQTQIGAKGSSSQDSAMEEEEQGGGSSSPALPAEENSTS
UniProt O54943: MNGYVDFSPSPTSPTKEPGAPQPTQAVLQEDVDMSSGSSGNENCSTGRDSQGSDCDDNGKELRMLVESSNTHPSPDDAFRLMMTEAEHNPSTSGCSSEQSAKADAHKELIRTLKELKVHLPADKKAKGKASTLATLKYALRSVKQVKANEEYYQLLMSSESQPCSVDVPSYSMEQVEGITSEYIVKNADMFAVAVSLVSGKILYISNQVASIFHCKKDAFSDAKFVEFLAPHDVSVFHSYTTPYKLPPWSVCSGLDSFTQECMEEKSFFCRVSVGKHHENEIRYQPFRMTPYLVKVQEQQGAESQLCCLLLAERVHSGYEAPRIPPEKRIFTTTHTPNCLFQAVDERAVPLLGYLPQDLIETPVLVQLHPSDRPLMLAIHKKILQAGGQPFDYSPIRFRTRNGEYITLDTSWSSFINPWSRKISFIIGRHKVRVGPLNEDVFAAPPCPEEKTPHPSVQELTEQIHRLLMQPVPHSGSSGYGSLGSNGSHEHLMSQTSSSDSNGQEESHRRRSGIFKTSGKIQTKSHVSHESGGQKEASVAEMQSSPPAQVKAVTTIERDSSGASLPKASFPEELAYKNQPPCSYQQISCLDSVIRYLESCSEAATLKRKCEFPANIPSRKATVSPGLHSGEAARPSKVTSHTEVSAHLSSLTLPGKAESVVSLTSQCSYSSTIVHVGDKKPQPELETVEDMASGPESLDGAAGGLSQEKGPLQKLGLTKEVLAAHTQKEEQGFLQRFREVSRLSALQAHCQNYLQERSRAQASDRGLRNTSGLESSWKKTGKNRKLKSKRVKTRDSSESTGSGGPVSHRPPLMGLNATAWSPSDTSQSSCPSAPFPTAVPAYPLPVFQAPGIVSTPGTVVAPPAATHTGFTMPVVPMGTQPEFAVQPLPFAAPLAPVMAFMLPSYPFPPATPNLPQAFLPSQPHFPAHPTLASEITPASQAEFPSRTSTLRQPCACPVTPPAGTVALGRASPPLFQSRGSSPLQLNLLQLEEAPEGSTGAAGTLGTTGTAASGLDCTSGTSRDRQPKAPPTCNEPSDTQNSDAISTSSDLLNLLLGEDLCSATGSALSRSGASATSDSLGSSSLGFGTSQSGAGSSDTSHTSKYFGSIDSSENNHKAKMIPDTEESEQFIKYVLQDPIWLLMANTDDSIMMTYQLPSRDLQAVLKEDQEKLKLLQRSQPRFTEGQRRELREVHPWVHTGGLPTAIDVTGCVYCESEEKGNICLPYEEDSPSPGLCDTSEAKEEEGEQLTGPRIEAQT
UniProt P49674: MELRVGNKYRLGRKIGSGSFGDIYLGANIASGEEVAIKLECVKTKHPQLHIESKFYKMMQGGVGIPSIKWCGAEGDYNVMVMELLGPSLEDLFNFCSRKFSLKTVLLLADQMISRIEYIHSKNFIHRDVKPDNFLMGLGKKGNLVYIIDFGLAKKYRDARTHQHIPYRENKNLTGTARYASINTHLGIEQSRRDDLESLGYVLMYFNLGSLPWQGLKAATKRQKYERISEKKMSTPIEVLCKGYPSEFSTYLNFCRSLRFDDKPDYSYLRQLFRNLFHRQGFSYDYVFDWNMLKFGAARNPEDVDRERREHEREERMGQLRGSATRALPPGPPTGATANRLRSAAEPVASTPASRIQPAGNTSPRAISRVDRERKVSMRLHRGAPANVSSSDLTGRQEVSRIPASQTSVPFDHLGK

binding [1]: binds | binding [2]: binds
Substance: casein kinase 1ε (CK1ε) (from UniProt P49674 1-416) (enzyme)

Source: article PMC11223080
